Six sequences from patent US20210180067 can be followed below.

Chains of the proteins cited; added tags and fusions are not shown. Chains listed by the source or under a name are the forms on record and can include a tag or linker.
CD25-IL2 complex on primary human CD4+CD25high Treg cells treated with IL2 (Homo sapiens), one chain, as listed by the source: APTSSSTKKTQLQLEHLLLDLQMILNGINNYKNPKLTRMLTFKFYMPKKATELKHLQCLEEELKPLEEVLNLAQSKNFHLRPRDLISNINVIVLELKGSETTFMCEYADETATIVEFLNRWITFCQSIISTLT

For some of these results: Weaker means in comparison with the reference protein, sequence or condition of that experiment. For some of these results: At least one result comes from cells or an extract, where the contact may be indirect. For some of these results: Negatives hold for the conditions tested. For some of these results: Where a protein sequence is shown, tags need not be part of it.

In series [1] the test system is CD25-IL2 complex on primary human CD4+CD25high Treg cells treated with IL2 (Homo sapiens). Kind of series: binding assay. The note with it: 2'-F C and U, AIM-V, 37 C, cell binding assay, protein on the cell surface.
Series [2] has as its target T1, CD25 (IL2RA) overexpressed on HEK293 (HEK-CD25) (Homo sapiens) (UniProt P01589).
T1 sequence (looked up, limits assumed): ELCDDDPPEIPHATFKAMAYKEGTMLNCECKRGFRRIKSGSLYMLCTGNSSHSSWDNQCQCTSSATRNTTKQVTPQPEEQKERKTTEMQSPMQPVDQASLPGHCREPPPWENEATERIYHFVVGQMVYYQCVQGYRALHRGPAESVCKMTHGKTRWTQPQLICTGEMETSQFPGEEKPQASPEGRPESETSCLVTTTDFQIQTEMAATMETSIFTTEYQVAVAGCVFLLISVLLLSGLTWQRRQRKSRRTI
In words: binding assay. To be noted: 2'-F C and U, cell binding RT-qPCR, 37 C, protein on the cell surface.

Series [3] relates to CD25 (IL2RA)-IL2 complex (Homo sapiens). Kind of series: pull-down. The note with it: 2'-F C and U, binding reduced vs unoccupied CD25, 2 mM CaCl2, 37 C, RT-qPCR, purified recombinant protein, protein details: CD25 His-tagged, Thermo Fisher.
Setting [4] is: higher on IL2-treated than untreated Tregs.
The mark [5] stands for this setting: 100 nM RNA, CD25 binders stated higher than on parental HEK293.
The mark [6] stands for this setting: lower on IL2-treated than untreated Tregs.

Take “GGGAGGACGAUGCGGUCCUGUCGUCUGUUCGUCCCCAGACGACUCGCCCGA [Tr-1]”: the binding result was “binds” in series [1] (setting [4]) and “binds” in series [2] (100 nM RNA, significantly higher than on parental HEK293).

As to “GGGAGGACGAUGCGGUGAGUCGUUCCCUUCGUCCCCAGACGACUCGCCCGA [Tr-7]”, the binding result in series [1] (setting [4]) and in series [2] (setting [5]) was “binds” throughout.

As to “GGGAGGACGAUGCGGGCCGUUGUUGUGUGCCGCCCCAGACGACUCGCCCGA [Tr-8]”, the binding result was “binds more weakly” in series [1] (setting [6]), “binds” in series [2] (setting [5]) and “binds more weakly” in series [3] (inverse correlation with IL2 occupancy (R2=0.565)).

Regarding “GGGAGGACGAUGCGGCGUUUCCUCUGGUUCGUCCCCAGACGACUCGCCCGA [Tr-6]”, the binding result in series [1] (setting [6]) is listed as “binds more weakly”; in series [2] (setting [5]), “binds”; in series [3], “binds more weakly”.

Take “GGGAGGACGAUGCGGAUUCUGGUUACUGGCCGCCCCAGACGACUCGCCCGA [Tr-11]”: the binding result was “binds” in series [1] (equal on IL2-treated and untreated Tregs); “binds” in series [2] (setting [5]).

In the case of “GGGAGGACGAUGCGGCACACCGAAAUGUCCCGACUCAGACGACUCGCCCGA [C-248]”, the binding result in series [2] (negative control, significantly lower than Tr-1) is recorded as “no binding”.
